For seven compounds, Friction coefficient results are on record in patent US10141017B2, “Lubricant for magnetic recording medium, and magnetic recording medium” (Dexerials Corporation, priority 2015, dated 2018).

The nature of the series: Friction properties of lubricant-coated hard disk (friction coefficient against number of sliding motions). To be noted: lubricant layer 10 Å.
Where [1] appears, read: sliding time 1, dip solvent Vertrel XF.
The mark [2] stands for this setting: sliding time 50, dip solvent Vertrel XF.
Setting [3] is: sliding time 100, dip solvent Vertrel XF.
[4] abbreviates: sliding time 1, dip solvent EtOH/Hexane.
Setting [5] is: sliding time 50, dip solvent EtOH/Hexane.
The mark [6] stands for this setting: sliding time 100, dip solvent EtOH/Hexane.

On to `NCCOCC(F)(F)OC(F)(F)C(F)(F)OC(F)(F)C(F)(F)OC(F)(F)C(F)(F)C(F)(F)C(F)(F)F.O=S(=O)(O)CCCOCC(F)(F)OC(F)(F)C(F)(F)OC(F)(F)C(F)(F)OC(F)(F)C(F)(F)C(F)(F)C(F)(F)F` [Ex. 1, PFTEG amine-PFTEG sulfonic acid salt], for which the Friction coefficient is, setting by setting: under setting [1], 0.18; under setting [2], 0.26; under setting [3], 0.28.
For `NCCOCC(F)(F)OC(F)(F)C(F)(F)OC(F)(F)C(F)(F)OC(F)(F)C(F)(F)C(F)(F)C(F)(F)F.O=S(=O)(O)C(F)(F)C(F)(F)C(F)(F)C(F)(F)F` [Ex. 3, PFTEG amine-perfluorobutane sulfonic acid salt], in that order: 0.18, 0.18 and 0.19.
On to `NCCC(F)(F)C(F)(F)C(F)(F)C(F)(F)C(F)(F)C(F)(F)C(F)(F)C(F)(F)F.O=C(O)C(F)(F)OC(F)(F)C(F)(F)OC(F)(F)C(F)(F)OC(F)(F)C(F)(F)C(F)(F)C(F)(F)F` [Ex. 4, 1H,1H,2H,2H-perfluorodecylamine-perfluoro-3,6,9-trioxatridecanoic acid salt], for which the Friction coefficient is, setting by setting: under setting [1], 0.16; under setting [2], 0.17; under setting [3], 0.18.
Turning to `NCCOCC(F)(F)OC(F)(F)C(F)(F)OC(F)(F)C(F)(F)OC(F)(F)C(F)(F)C(F)(F)C(F)(F)F.O=S(=O)(NS(=O)(=O)C(F)(F)C(F)(F)C(F)(F)C(F)(F)F)C(F)(F)C(F)(F)C(F)(F)C(F)(F)F` [Ex. 5, PFTEG amine-bis(perfluorobutanesulfonyl)imide salt], the Friction coefficient by setting is: under setting [1], 0.16; under setting [2], 0.17; under setting [3], 0.17.
Regarding `NCCC(F)(F)C(F)(F)C(F)(F)C(F)(F)C(F)(F)C(F)(F)C(F)(F)C(F)(F)F.O=S(=O)(O)C(F)(F)C(F)(F)C(F)(F)C(F)(F)F` [compound 2, 1H,1H,2H,2H-perfluorodecylamine-perfluorobutane sulfonic acid salt, reference compound], the Friction coefficient runs as follows: under setting [4], 0.25; under setting [5], 0.31; under setting [6], 0.40.
Taken in the same sequence, the figures for “octadecylamine-perfluoroheptanoic Acid Salt [compound 3, reference compound]” were 0.55, 0.53 and 0.33.
As to “octylamine-PFTEG sulfonic Acid Salt [Comp. Ex. 1, reference compound]”, the Friction coefficient reads like this: under setting [4], 0.18; under setting [5], 0.44; under setting [6], 0.55.
